These are yes or no findings as the source states them, for the method shown. In cells and extracts the contact can be indirect. Some entries that bind do so weakly or less than the wild type.

Chains of the proteins cited; added tags and fusions are not shown.
UniProt Q9Z0Z7: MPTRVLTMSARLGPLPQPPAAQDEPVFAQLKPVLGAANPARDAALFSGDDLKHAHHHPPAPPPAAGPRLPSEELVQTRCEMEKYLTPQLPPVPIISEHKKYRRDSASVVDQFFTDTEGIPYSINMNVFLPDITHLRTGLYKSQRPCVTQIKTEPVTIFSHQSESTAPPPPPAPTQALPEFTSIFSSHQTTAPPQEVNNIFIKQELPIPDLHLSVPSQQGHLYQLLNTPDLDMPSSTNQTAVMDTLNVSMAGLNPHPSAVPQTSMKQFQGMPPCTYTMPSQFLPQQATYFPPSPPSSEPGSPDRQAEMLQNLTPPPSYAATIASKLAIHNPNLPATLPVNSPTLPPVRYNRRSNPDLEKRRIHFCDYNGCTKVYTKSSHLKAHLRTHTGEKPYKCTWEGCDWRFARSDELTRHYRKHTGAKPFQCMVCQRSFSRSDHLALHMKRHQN
UniProt P45448: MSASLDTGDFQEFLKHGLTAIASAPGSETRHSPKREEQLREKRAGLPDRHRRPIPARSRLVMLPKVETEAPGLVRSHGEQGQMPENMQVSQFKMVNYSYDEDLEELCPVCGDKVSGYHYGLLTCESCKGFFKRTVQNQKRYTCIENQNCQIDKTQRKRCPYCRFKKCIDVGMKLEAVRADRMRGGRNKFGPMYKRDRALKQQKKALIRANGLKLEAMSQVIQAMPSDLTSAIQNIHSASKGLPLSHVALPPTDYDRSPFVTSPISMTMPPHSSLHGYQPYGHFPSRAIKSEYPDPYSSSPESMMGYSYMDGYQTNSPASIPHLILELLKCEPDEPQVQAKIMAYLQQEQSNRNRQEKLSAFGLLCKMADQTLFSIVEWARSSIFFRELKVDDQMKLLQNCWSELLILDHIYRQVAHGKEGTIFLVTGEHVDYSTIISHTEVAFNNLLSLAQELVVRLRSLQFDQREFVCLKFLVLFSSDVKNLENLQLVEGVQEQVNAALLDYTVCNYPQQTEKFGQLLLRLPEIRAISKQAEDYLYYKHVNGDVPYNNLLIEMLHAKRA

The assay deals with KLF5 (mouse (endogenous in 8-cell embryos)) (UniProt Q9Z0Z7). Nature of the assay: proximity ligation; Duolink PLA on fixed (4% formaldehyde), permeabilised mouse 8-cell embryos; primary antibodies against NR5A2 and KLF5, rabbit PLUS and mouse MINUS probes; PLA spots within nuclei counted, density compared with no-primary and single-antibody controls.

Regarding NR5A2 (from UniProt P45448 1-560), the binding result is reported as “binds”.
